Test results reported in article PMC12667501.
These are yes or no findings as the source states them, for the method shown. Binding seen in cells or lysates may run through a third protein. Some results given as binding are weak or reduced against the parent protein; the word gives no strength. Where a sequence is shown, tags or fusion partners need not be part of it.

By UniProt entry, the sequences of proteins in these tests, tags left out.
UniProt P63208: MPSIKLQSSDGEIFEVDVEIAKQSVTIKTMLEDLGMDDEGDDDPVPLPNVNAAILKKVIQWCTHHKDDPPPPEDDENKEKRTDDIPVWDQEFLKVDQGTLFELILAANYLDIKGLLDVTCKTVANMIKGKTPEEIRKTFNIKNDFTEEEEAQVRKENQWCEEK
UniProt P35222: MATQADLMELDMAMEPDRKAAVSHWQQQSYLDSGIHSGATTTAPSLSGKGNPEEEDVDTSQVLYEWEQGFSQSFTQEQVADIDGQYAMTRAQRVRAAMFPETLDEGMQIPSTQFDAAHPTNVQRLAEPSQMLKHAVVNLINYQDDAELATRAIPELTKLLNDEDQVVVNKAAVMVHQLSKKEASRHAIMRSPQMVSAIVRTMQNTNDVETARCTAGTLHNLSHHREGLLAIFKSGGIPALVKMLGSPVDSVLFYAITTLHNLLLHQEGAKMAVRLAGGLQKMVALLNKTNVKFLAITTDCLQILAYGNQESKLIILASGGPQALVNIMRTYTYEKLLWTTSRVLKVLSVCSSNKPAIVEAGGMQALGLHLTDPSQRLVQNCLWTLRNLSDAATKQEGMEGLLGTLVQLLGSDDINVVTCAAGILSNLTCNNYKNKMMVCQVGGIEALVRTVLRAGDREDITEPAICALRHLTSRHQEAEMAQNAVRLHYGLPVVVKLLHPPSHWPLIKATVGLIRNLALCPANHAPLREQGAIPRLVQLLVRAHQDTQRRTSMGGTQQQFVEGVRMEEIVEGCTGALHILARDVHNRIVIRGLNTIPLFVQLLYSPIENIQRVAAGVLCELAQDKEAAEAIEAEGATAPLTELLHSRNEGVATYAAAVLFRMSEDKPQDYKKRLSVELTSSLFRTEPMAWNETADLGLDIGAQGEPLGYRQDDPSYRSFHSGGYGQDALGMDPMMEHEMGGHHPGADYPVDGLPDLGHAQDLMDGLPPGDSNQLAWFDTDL

T1: Flag-tagged Btrc full-length isoform (FL) (UniProt Q3ULA2)
T1 sequence: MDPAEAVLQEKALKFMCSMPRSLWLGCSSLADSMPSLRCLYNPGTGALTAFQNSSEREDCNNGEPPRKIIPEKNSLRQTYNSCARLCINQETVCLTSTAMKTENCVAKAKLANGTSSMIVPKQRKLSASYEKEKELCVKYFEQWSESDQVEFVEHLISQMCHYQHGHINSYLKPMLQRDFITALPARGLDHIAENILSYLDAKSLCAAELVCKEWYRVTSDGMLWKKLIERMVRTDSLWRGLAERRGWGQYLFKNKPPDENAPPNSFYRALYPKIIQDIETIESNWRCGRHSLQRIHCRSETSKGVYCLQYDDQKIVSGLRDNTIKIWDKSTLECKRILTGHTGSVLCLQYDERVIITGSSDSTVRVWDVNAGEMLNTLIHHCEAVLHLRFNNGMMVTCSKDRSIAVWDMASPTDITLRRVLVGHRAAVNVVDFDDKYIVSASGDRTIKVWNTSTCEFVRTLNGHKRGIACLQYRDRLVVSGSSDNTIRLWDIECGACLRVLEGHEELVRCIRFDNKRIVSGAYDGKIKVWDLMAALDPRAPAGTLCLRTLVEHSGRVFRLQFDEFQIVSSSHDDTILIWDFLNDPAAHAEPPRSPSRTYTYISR


What was measured:
[1] = target: T1, Flag-tagged Btrc full-length isoform (FL); test: co-IP; Flag-tagged Btrc isoforms transfected into HEK293T cells; lysates precipitated with anti-Flag antibody; Western blotting for endogenous Skp1, Cul1 or phospho-β-catenin; for phospho-β-catenin cells treated with MG132 (10 µM) for 12 h
[2] = target: T1, Flag-tagged Btrc full-length isoform (FL); test: co-IP; Myc-tagged Ube2r2 and Flag-tagged Btrc isoforms cotransfected into HEK293T cells for 48 h; lysates precipitated with anti-Flag antibody; Western blotting with anti-Myc and anti-Flag

| binding [1] | binding [2] | Molecule |
| --- | --- | --- |
| binds |  | Skp1 (from UniProt P63208 1-163) |
| binds |  | phosphorylated β-catenin (from UniProt P35222 1-781) |
|  | binds | Myc-tagged Ube2r2 (enzyme, UniProt Q6ZWZ2 1-238) MAQQQMTSSQKALMLELKSLQEEPVEGFRITLVDESDLYNWEVAIFGPPNTLYEGGYFKAHIKFPIDYPYSPPTFRFLTKMWHPNIYENGDVCISILHPPVDDPQSGELPSERWNPTQNVRTILLSVISLLNEPNTFSPANVDASVMFRKWRDSKGKDKEYAEIIRKQVSATKAEAEKDGVKVPTTLAEYCIKTKVPSNDNSSDLLYDDLYDDDIDDEDEEEEDADCYDDDDSGNEES |
